The values below come from US8158764B2 (priority 2006, dated 2012).

The assay is described as follows: Tail flick test (analgesic activity). It is filed as in vivo, mouse. On the set-up: unit not given here. As to the method:
The “Tail flick” test (test of D'Amour & Smith, 1941, Pharmacol Exp Ther; 72: 74-79) consists in placing the tail of a mouse, after administration of a product, in front of an infrared source in order to produce a nociceptive stimulus (a surface temperature of 55° C.). The reaction time (RT) of the mouse (latency between the start of the light beam and the moment the mouse withdraws its tail) was measured in duplicate at 8 times spread from […] after administration of the product. A maximal 10 second-period has been chosen as the maximal reaction time in order to avoid any tissue damage for the animal.
Products were intravenously-administered at doses comprised between 0.5 and 8 mg/kg (8 mice per group).
Two measures of reaction time were realized before administration of the product for each mouse so as to establish a base line.
The MPE % represents the percentage of possible maximal effect and corresponds to the following formula: […]

For `CN1CC[C@]23c4c5ccc(O)c4O[C@H]2[C@@H](O)C=C[C@H]3[C@H]1C5` [Morphine, reference compound], the “AUC, tail flick test” value (dose 1.7 mg/Kg iv) is given as 60.62; the “AUC, tail flick test” value (dose 3.4 mg/Kg iv) was determined as 589.54; the “AUC, tail flick test” value (dose 6.8 mg/Kg iv) is reported as 1529.18.
